Measurements: PMC8274477
These are yes or no findings as the source states them, for the method shown. Some binding calls cover weakened binding; strength is not graded here.

Amino acid sequences for entries named in this document (tags omitted).
UniProt Q8N8S7: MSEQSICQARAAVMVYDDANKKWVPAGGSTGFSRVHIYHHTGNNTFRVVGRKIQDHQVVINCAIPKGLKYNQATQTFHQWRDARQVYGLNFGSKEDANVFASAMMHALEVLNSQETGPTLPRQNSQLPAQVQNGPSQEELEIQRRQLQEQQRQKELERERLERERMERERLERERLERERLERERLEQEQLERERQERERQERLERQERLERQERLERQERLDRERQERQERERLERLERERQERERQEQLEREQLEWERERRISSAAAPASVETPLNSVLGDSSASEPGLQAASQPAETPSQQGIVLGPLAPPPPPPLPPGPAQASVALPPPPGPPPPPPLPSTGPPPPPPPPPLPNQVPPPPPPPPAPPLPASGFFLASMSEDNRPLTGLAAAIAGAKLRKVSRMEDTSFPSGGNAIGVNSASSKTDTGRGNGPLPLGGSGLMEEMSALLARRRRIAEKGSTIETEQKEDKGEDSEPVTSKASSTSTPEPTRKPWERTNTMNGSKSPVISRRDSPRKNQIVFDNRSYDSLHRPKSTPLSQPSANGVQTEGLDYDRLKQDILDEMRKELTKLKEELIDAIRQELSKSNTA
UniProt Q96AE4: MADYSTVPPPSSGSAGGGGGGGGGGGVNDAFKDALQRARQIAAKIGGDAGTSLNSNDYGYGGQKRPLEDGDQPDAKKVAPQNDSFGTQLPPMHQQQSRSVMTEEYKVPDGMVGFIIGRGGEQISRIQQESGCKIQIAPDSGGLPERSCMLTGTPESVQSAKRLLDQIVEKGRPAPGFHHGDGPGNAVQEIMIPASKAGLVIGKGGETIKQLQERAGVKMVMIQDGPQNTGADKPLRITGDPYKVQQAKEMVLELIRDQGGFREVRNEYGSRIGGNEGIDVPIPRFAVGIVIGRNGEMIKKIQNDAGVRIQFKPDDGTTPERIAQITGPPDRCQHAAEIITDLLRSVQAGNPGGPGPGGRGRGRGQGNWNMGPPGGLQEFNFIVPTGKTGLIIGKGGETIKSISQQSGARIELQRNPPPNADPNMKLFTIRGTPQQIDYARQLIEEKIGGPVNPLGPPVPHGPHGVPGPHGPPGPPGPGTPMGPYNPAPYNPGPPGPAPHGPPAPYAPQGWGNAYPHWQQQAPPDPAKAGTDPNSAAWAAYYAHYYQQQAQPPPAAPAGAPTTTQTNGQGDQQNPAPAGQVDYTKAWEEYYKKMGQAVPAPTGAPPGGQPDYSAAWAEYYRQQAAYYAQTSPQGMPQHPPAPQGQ
UniProt O96013: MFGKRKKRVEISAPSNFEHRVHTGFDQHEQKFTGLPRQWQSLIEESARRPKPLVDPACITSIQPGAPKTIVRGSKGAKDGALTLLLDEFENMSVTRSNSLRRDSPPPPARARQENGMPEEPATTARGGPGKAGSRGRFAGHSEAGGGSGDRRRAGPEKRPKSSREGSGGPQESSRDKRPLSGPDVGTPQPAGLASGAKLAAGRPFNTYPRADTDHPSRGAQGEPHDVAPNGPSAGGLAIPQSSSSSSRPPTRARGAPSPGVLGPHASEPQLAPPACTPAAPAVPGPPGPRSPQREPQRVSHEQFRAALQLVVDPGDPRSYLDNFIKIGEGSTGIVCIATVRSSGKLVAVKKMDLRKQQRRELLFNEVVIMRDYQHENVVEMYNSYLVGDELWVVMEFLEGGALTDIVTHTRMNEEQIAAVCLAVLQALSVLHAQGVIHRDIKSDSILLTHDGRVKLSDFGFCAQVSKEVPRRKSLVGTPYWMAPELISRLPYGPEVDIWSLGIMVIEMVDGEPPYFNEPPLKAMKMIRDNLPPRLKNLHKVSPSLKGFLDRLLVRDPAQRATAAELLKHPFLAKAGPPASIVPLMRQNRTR
UniProt Q969G3: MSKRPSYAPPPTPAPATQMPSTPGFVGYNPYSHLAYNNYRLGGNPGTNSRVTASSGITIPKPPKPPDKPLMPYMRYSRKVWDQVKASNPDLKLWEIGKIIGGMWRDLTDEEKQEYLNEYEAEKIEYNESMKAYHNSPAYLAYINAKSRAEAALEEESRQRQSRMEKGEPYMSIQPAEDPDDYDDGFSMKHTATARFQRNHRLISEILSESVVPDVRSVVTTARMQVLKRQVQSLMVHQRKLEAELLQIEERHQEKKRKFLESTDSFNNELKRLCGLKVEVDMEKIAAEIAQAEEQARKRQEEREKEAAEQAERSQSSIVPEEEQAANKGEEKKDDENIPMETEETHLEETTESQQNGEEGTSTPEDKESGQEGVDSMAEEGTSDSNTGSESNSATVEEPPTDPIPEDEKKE
UniProt Q9BYN0: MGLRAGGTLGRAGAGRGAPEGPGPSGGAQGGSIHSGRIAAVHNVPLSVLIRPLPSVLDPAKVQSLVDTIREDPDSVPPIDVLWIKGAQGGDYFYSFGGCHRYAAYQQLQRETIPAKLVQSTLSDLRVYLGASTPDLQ

Legend:
Assay in all cases: peptide or protein array; HuProt human proteome microarray; 5 ug/5 ml biotin-labelled LUBAC or OTULIN in solution, 1 h at room temperature; Cy5-streptavidin, scanned at 635 nm; BSA as negative control; hits: Z-score >= 3 and I_(Mean_Ratio) >= 1.4; both purified
BLVRB (human) = target: T1, BLVRB (human) (UniProt P30043)
T1 sequence: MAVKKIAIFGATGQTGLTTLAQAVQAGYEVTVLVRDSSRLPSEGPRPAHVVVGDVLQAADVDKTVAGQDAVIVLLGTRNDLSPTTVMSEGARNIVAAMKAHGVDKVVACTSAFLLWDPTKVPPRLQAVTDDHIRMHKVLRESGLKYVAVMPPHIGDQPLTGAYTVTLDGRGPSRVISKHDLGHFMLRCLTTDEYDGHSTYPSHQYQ

CTBP2 (human) = CTBP2 (human) (UniProt P56545)
CYB5R1 (human) = target: T2, CYB5R1 (human) (UniProt Q9UHQ9)
T2 sequence: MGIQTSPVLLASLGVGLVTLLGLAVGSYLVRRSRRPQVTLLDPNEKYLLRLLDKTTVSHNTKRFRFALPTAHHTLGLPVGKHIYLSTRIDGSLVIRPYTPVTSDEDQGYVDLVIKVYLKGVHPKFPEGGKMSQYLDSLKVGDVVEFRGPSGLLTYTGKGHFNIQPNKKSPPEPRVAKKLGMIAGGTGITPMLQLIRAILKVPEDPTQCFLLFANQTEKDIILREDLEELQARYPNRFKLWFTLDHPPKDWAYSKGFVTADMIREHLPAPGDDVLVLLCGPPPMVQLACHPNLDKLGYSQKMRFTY

DOK1 (human) = target: T3, DOK1 (human) (UniProt Q99704)
T3 sequence: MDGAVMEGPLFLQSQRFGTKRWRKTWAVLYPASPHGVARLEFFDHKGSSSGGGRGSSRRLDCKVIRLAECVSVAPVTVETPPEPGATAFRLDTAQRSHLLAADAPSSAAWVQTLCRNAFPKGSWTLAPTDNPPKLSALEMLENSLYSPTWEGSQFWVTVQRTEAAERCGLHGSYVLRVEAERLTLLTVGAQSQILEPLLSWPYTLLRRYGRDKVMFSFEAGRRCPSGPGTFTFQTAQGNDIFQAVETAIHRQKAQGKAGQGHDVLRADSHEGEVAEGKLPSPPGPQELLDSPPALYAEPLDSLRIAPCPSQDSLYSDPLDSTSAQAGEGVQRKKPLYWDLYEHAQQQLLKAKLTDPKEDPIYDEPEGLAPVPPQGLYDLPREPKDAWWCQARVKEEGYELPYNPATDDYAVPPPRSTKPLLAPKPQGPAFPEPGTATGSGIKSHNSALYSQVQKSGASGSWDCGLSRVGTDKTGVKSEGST

ENAH (human) = ENAH (human) (UniProt Q8N8S7)
FUBP1 (human) = FUBP1 (human) (UniProt Q96AE4)
PAK4 (human) = PAK4 (human) (UniProt O96013)
SMARCE1 (human) = SMARCE1 (human) (UniProt Q969G3)
SRXN1 (human) = SRXN1 (human) (UniProt Q9BYN0)
ZADH2 (human) = target: T4, ZADH2 (human) (UniProt Q8N4Q0)
T4 sequence: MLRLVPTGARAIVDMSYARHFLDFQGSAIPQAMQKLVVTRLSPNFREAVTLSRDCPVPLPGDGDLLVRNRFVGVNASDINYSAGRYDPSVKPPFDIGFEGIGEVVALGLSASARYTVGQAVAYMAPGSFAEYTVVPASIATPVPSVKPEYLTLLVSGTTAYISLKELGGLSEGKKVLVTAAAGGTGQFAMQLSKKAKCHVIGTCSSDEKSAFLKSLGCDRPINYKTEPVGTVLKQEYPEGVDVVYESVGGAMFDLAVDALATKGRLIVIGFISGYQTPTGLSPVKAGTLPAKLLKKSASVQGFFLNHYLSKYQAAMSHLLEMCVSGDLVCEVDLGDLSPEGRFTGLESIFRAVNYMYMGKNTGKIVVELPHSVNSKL

Measured: binding

linear ubiquitin chain assembly complex (LUBAC), purified as HIS-tagged HOIP with the subunit HOIL-1, biotin-labelled (from UniProt Q96EP0 1-1072; Q9BYM8 1-510)
binds: all assays above
